PMC13022674
Construct, isoform or probe ends are uncertain for at least one entry. At least one verdict was read from the data and is not stated in words by the source.

Protein sequences, listed by entry. Tags and fused reporters are not part of them. Residues count along the entry.
UniProt Q13569, 82-308 A145G: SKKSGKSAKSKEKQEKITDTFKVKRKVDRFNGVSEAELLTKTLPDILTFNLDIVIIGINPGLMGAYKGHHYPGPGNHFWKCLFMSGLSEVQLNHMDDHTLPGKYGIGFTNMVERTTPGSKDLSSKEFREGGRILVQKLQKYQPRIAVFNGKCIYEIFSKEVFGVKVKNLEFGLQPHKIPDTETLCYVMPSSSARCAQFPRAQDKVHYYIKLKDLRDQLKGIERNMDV

Target: TDG A145G (UniProt Q13569)
Assay: 19F NMR
Details: large flipping-induced shift, text says TDG, legend TDG A145G; 2'-deoxy-2'-fluoroarabinothymidine (TF) at strand 1 pos 18; NMR: 0.1 M NaCl, 0.03 mM TCEP, 15 mM Tris-HCl pH 7.5, 10% D2O, 25 C; recombinant protein; residues 82-308

“TGTGTCACCACTGCTCATGTACAGAGCTG / CAGCTCTGTACGTGAGCAGTGGTGACAC [D2-TF]”: binds.
